The text below walks through data of article PMC12374808.

Sequences of proteins named here, by UniProt entry; tags and fusion partners are left off. A change or cut given only in a name is not applied to a line headed by its entry.
UniProt P16070: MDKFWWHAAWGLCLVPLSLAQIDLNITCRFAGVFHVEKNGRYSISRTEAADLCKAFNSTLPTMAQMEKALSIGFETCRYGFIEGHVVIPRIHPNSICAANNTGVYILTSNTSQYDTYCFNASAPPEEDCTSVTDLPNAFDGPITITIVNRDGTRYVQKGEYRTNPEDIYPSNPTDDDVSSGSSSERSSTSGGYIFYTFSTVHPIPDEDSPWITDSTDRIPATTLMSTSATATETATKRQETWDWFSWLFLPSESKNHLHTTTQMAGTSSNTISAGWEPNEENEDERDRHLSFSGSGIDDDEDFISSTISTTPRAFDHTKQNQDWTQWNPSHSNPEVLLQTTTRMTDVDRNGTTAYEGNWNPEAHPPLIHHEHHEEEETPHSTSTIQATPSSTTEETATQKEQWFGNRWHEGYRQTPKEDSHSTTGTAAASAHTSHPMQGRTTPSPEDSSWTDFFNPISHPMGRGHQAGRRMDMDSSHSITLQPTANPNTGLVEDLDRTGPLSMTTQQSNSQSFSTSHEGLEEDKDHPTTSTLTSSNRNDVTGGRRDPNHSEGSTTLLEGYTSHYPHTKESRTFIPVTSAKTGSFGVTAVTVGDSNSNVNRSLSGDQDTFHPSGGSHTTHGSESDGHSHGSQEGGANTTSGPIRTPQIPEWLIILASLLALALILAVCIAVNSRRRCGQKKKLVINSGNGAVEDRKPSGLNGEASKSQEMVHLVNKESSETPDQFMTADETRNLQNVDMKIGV
UniProt P05412: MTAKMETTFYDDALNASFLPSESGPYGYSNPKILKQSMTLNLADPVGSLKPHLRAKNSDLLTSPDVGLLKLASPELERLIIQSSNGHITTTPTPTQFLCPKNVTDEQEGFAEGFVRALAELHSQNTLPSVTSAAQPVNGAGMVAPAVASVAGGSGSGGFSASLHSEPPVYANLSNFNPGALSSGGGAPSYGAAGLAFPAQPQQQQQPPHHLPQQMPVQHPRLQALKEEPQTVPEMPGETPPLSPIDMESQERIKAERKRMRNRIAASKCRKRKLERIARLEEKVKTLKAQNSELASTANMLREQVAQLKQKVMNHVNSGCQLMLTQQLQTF

This assay deals with cleaved intracellular domain (ICD) of CD44 (CD44-ICD) (human (endogenous in A549)) (UniProt P16070). In words: co-IP; nuclear fraction of A549 cells treated with 200 ng/ml rhTSG6 for 2 hours; immunoprecipitation, then immunoblot with anti-CD44, anti-c-Fos and anti-c-Jun.

Results are given in words; binding and its absence hold for the method and conditions named. Binding seen in cells or lysates may run through a third protein. A result given as binding can be weak or reduced; the word gives no strength.

Consider c-Jun (from UniProt P05412 1-331), for which the binding result is listed as “binds”.
